In PubChem BioAssay AID248 (DTP/NCI, 2004) one finds survivor count and T/C data, which are given here for 25 molecules.

This assay deals with L1210 leukemia ip in BDF1 mice, survival T/C. Put plainly: NCI In Vivo Anticancer Drug Screen. Data for tumor model L1210 Leukemia (intraperitoneal) in B6D2F1 (BDF1) mice. The note with it: T/C endpoint: mean survival time, higher T/C = longer survival.
Where [1] appears, read: dose: 200.0 mg/kg/injection, schedule: Q01DX001 (ip), vehicle: carboxymethylcellulose (CMC).
The mark [2] stands for this setting: dose: 400.0 mg/kg/injection, schedule: Q01DX001 (ip), vehicle: carboxymethylcellulose (CMC).
The mark [3] stands for this setting: dose: 100.0 mg/kg/injection, schedule: Q04DX003 (ip), vehicle: Klucel (hydroxypropylcellulose) (HPC).
Where [4] appears, read: dose: 200.0 mg/kg/injection, schedule: Q04DX003 (ip), vehicle: Klucel (hydroxypropylcellulose) (HPC).
The mark [5] stands for this setting: dose: 400.0 mg/kg/injection, schedule: Q04DX003 (ip), vehicle: Klucel (hydroxypropylcellulose) (HPC).
[6] abbreviates: dose: 50.0 mg/kg/injection, schedule: Q04DX003 (ip), vehicle: Klucel (hydroxypropylcellulose) (HPC).
[7] abbreviates: dose: 400.0 mg/kg/injection, schedule: Q01DX009 (ip), vehicle: Klucel (hydroxypropylcellulose) (HPC).
Setting [8] is: dose: 400.0 mg/kg/injection, schedule: Q04DX003 (ip), vehicle: saline with Tween-80.
Setting [9] is: dose: 200.0 mg/kg/injection, schedule: Q01DX009 (ip), vehicle: saline with Tween-80.

SMILES strings stand for the structures. The list shows only some results of the screen, not a fair sample: it is rich in T/C values a quarter to a half above the control, in often repeated tests (any T/C) and in doses without a T/C. Further doses and runs are listed elsewhere. T/C: endpoint of the treated group in % of that of the vehicle group. Some doses have a count of surviving animals in place of a T/C: the source holds a T/C of zero for them, seemingly a mark for toxic or unscored doses. Some doses without a T/C left all or most animals alive at the check, yet need not have been tolerated: survival well below the control is almost never listed, so the zero probably covers shortened survival too. Counts of survivors are from the toxicity check (mostly the fifth day) where no day follows; animals may have died later. Schedules are NCI's codes, read here as Q, the interval in days (D) or hours (H), X, the number of doses. Some schedules carry Z or #; the key to these is not given. For survival time, this PubChem deposit counts one and a half times the control or more as active, and values a quarter to a half above the control carry no call in these data; other NCI protocols may use other cut-offs.

`O=C1C(Br)=C(Br)c2ccccc21`: the survivor count is 1 of 4 under setting [1] and 2 of 4 under setting [2].
As for `CS(=O)(=O)NC1=NCCN1[N+](=O)[O-]`, the survivor count (dose: 80.0 mg/kg/injection, schedule: Q04DX003 (ip), vehicle: Klucel (hydroxypropylcellulose) (HPC)) was 3 of 6; the survivor count under setting [3] is listed as 2 of 6; the survivor count under setting [4] is 0 of 6; the survivor count under setting [5] was 0 of 6.
Take `Cc1cc(=O)[nH]c2c1C(=O)c1c(C)cc(=O)n(C)c1C2=O`: the survivor count (dose: 6.0 mg/kg/injection, schedule: Q01DX009 (ip), vehicle: Klucel (hydroxypropylcellulose) (HPC)) is given as 0 of 6; the survivor count (dose: 6.0 mg/kg/injection, schedule: Q04DX003 (ip), vehicle: Klucel (hydroxypropylcellulose) (HPC)) is recorded as 5 of 6; the survivor count (dose: 12.0 mg/kg/injection, schedule: Q01DX009 (ip), vehicle: Klucel (hydroxypropylcellulose) (HPC)) is given as 0 of 6; the survivor count (dose: 12.0 mg/kg/injection, schedule: Q04DX003 (ip), vehicle: Klucel (hydroxypropylcellulose) (HPC)) is 1 of 6; the survivor count (dose: 25.0 mg/kg/injection, schedule: Q01DX009 (ip), vehicle: Klucel (hydroxypropylcellulose) (HPC)) is reported as 0 of 6; the survivor count (dose: 25.0 mg/kg/injection, schedule: Q04DX003 (ip), vehicle: Klucel (hydroxypropylcellulose) (HPC)) is on record as 0 of 6. For the same molecule, the survivor count reads like this: (dose: 50.0 mg/kg/injection, schedule: Q01DX009 (ip), vehicle: Klucel (hydroxypropylcellulose) (HPC)) 0 of 6; under setting [6], 0 of 6; under setting [3], 0 of 6; under setting [4], 0 of 6; under setting [5], 0 of 6.
Consider `Cc1cc(N(CCOS(C)(=O)=O)CCOS(C)(=O)=O)ccc1C=Nc1ccc2ccccc2c1`, for which the T/C runs as follows: (dose: 30.0 mg/kg/injection, schedule: Q04DX003 (ip), vehicle: Klucel (hydroxypropylcellulose) (HPC)) 132 % of control; (dose: 40.0 mg/kg/injection, schedule: Q04DX003 (ip), vehicle: Klucel (hydroxypropylcellulose) (HPC)) 128 % of control. For the same molecule, the survivor count under setting [3] is on record as 6 of 6, the survivor count under setting [4] is on record as 6 of 6 and the survivor count under setting [5] is recorded as 0 of 6.
As to `O=C(Nc1ccc2c(c1)OCO2)O/N=C1\C(=O)Nc2ccccc21`, the survivor count (dose: 200.0 mg/kg/injection, schedule: Q01DX009 (ip), vehicle: saline) is reported as 5 of 6.
Regarding `N#CCN1CCCCC1`, the survivor count (dose: 100.0 mg/kg/injection, schedule: Q01DX009 (ip), vehicle: saline) is listed as 0 of 6.
In the case of `CCCC(=O)OCC1OC(n2cc(C)c(=O)[nH]c2=O)CC1OC(=O)CCC` (stereo not given), the survivor count under setting [2] was 2 of 4.
For the molecule `C[C@H](C[P+](c1ccccc1)(c1ccccc1)c1ccccc1)[C@](OC(=O)c1ccccc1)(C(=O)c1ccccc1)c1ccccc1`, the survivor count is, setting by setting: (dose: 100.0 mg/kg/injection, schedule: Q01DX001 (ip), vehicle: saline with Tween-80) 0 of 6; (dose: 200.0 mg/kg/injection, schedule: Q01DX001 (ip), vehicle: saline with Tween-80) 0 of 6; (dose: 400.0 mg/kg/injection, schedule: Q01DX001 (ip), vehicle: saline with Tween-80) 0 of 6.
On to `CN=C(N)c1ccc(N=C(N)c2ccc(Cl)c(C(N)=Nc3ccc(C(N)=NC)cc3)c2)cc1`, for which the survivor count is on record as 1 of 6 (dose: 40.0 mg/kg/injection, schedule: Q01DX Z (ip), vehicle: water) and 0 of 6 (dose: 80.0 mg/kg/injection, schedule: Q01DX Z (ip), vehicle: water).
As to `CC(C)CC(CC(C)C)NC(C)COC(=O)c1ccc(N)cc1` (stereo not given), the survivor count (dose: 150.0 mg/kg/injection, schedule: Q01DX001 (ip), vehicle: saline) is given as 3 of 6 and the survivor count (dose: 300.0 mg/kg/injection, schedule: Q01DX001 (ip), vehicle: saline) was 0 of 6.
`Cc1ccc(C)c(NC(=O)Nc2c(C)n(C)n(-c3ccccc3)c2=O)c1`: the survivor count under setting [7] is on record as 5 of 6.
For `CC1(C)C2CCC(CCO)C1C2` (stereo not given), the survivor count is 0 of 6 (dose: 150.0 mg/kg/injection, schedule: Q01DX009 (ip), vehicle: saline with Tween-80); 4 of 6 (dose: 200.0 mg/kg/injection, schedule: Q04DX003 (ip), vehicle: saline with Tween-80); 0 of 6 (dose: 225.0 mg/kg/injection, schedule: Q01DX009 (ip), vehicle: saline with Tween-80); 0 of 6 under setting [8].
Take `Nc1ccc(S(=O)(=O)c2ccc(NCC(=O)O)cc2)cc1`: under setting [8], the survivor count was 5 of 6.
As for `CC1OC(OC2CCC3(C=O)C4CCC5(C)C(C6=CC(=O)OC6)CCC5(O)C4CCC3(O)C2)C(O)C(O)C1O` (stereo not given), the survivor count is reported as 3 of 6 (dose: 12.0 mg/kg/injection, schedule: Q01DX001 (ip), vehicle: carboxymethylcellulose (CMC)); 0 of 6 (dose: 25.0 mg/kg/injection, schedule: Q01DX001 (ip), vehicle: carboxymethylcellulose (CMC)); 0 of 6 (dose: 50.0 mg/kg/injection, schedule: Q01DX001 (ip), vehicle: carboxymethylcellulose (CMC)); 1 of 6 (dose: 100.0 mg/kg/injection, schedule: Q01DX001 (ip), vehicle: carboxymethylcellulose (CMC)); 0 of 6 under setting [1]; 0 of 6 under setting [2].
For the molecule `O=C(O)c1cscc1-c1cccc2ccccc12`, under setting [8], the survivor count is reported as 3 of 6.
As to `O=C(O)C(=O)Nc1ncn[nH]1`, the T/C (dose: 25.0 mg/kg/injection, schedule: Q01DX005 (ip), vehicle: Klucel (hydroxypropylcellulose) (HPC)) was 126 % of control. Moreover, the survivor count runs as follows: (dose: 100.0 mg/kg/injection, schedule: Q01DX005 (ip), vehicle: Klucel (hydroxypropylcellulose) (HPC)) 0 of 3; (dose: 200.0 mg/kg/injection, schedule: Q01DX005 (ip), vehicle: Klucel (hydroxypropylcellulose) (HPC)) 2 of 3; (dose: 400.0 mg/kg/injection, schedule: Q04DX002 (ip), vehicle: Klucel (hydroxypropylcellulose) (HPC)) 0 of 3.
As for `O=C1c2cccc3cccc(c23)C(=O)N1NCCO`, the survivor count under setting [7] is reported as 1 of 6.
As for `O=C1C2CCC(C2)C1C(O)(C(F)(F)F)C(F)(F)F` (stereo not given), the survivor count was 3 of 6 under setting [9] and 0 of 6 under setting [8].
For the molecule `C=CCc1ccc(OCCOCCNC2CC3CCC2(C)C3(C)C)c(OC)c1` (stereo not given), the survivor count by setting is: under setting [4], 0 of 6; under setting [5], 0 of 6.
Turning to `CC(CC(CCC(=O)O)(c1ccccc1)c1ccccc1)N(C)C` (stereo not given), the survivor count under setting [2] was 1 of 4.
With `N#Cc1nc2c(nc1C#N)CCCC2`, the survivor count is 6 of 6 under setting [6]; 2 of 6 (dose: 100.0 mg/kg/injection, schedule: Q01DX001 (ip), vehicle: Klucel (hydroxypropylcellulose) (HPC)); 5 of 6 under setting [3]; 0 of 6 (dose: 200.0 mg/kg/injection, schedule: Q01DX001 (ip), vehicle: Klucel (hydroxypropylcellulose) (HPC)); 0 of 6 (dose: 400.0 mg/kg/injection, schedule: Q01DX001 (ip), vehicle: Klucel (hydroxypropylcellulose) (HPC)).
As to `CCCCNCCC(SS)c1ccc(Cl)cc1` (stereo not given), the survivor count under setting [9] is reported as 0 of 6 and the survivor count under setting [8] is 0 of 6.
In the case of `COc1cccc2c1C(=O)c1c(O)c3c(c(O)c1C2=O)C[C@@](O)(C(=O)COC(=O)c1cccnc1)C[C@@H]3OC1CC(N)C(O)C(C)O1` (stereo not given in full), the T/C (dose: 1.1 mg/kg/injection, schedule: Q01DX009 (ip), vehicle: saline) was 135 % of control.
Take `O=C(O)C(=O)/C=C/c1cccc([N+](=O)[O-])c1`: under “dose: 400.0 mg/kg/injection, schedule: Q01DX009 (ip), vehicle: saline”, the survivor count is given as 0 of 6.
On to `N#CCc1nn(-c2ccccc2)c(N)c1C#N`, for which, under “dose: 225.0 mg/kg/injection, schedule: Q01DX001 (ip), vehicle: Klucel (hydroxypropylcellulose) (HPC)”, the survivor count is reported as 3 of 6.
